Data reported in article PMC7819943, “Rice protein-binding microarrays: a tool to detect cis-acting elements near promoter regions in rice”.
The list shows a part of the results.

biological target: T1, OsSMF1 (Oryza sativa, UniProt Q6ZLB0 1-436); test: protein-binding microarray (RPBM); PBS, 2% BSA, 51.3 ng/ul salmon testes DNA, 50 uM zinc acetate, 200 nM TF, 25 C, 1 h; high values mean tight binding; settings: protein: recombinant; tags: N-terminal polyhistidine and DsRed monomer fusion (pET32a); chain copies: 2; label: CyDye5-dUTP incorporated in the synthesized complementary strand; 3' TTTTT single-stranded linker to array surface; dsDNA, one strand shown
T1 sequence: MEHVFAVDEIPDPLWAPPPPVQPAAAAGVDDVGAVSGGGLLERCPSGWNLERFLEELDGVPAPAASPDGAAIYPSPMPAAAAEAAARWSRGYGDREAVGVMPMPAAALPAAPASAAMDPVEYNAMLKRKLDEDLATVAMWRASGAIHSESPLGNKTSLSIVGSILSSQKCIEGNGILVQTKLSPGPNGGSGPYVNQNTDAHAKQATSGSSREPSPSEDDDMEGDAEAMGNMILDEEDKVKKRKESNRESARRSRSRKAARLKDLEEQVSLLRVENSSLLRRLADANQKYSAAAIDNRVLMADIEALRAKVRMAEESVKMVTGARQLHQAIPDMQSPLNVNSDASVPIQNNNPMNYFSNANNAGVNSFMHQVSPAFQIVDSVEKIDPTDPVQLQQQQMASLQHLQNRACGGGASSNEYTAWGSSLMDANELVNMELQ
In short: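 Transcription factors were made in E. coli BL21-CodonPlus as N-terminal fusions to a polyhistidine tag and DsRed, then purified on Ni–NTA. After primer extension with Cy5-dUTP and blocking with 2% BSA, a custom Agilent array was exposed for 1 h at 25 °C to 200 nM protein in PBS, 2% BSA, salmon testes DNA and 50 µM zinc acetate. Washed arrays were scanned on an Axon 4000B, and the binding signal is per-feature fluorescence intensity in arbitrary units.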

Q: How did the binding signal turn out when “AGAGAGAGGTGATGACATGGCTTACTGACATGTGGGGCCCCGGAGTCACCTAGTGCAG” was run?
A: Its binding signal is 8410 fluorescence intensity (a.u.).

Q: Which binding signal does the source give for “CTGCCGCCACCTCGTCACCGCCCGACCAATCCGCCGCCGCCGGAGTCACCTAGTGCAG” here?
A: Its binding signal is 4340 fluorescence intensity (a.u.).

Q: With “AATTTAAGTGTATACGTGGCCACCTTAATTACATGGTGGCCGGAGTCACCTAGTGCAG” as the sequence, how does the binding signal read?
A: Its binding signal is 8130 fluorescence intensity (a.u.).

Q: With “CGTCCACGTCCATCTCCGCCGCTGACAGCACCAGCTCTTCCGGAGTCACCTAGTGCAG” as the sequence, how does the binding signal read?
A: Its binding signal is 5020 fluorescence intensity (a.u.).

Q: “CTTCCATCCAACTCTACCTAGCTAGCTTAGCTAGCTCTTACGGAGTCACCTAGTGCAG” was tested. Which binding signal did it give?
A: The binding signal was 3540 fluorescence intensity (a.u.).

Q: Which binding signal does the source give for “GTTGGGGAGCTTAGCTCGCGCGCGGCGCGGTGGATCGCATCGGAGTCACCTAGTGCAG” here?
A: Its binding signal is 4260 fluorescence intensity (a.u.).

Q: How did the binding signal turn out when “ACACGGATCGAACCCCTCCTCCCCGCCACGTCACCGATCCCGGAGTCACCTAGTGCAG” was run?
A: The binding signal was 38700 fluorescence intensity (a.u.).

Q: “GTCCACGCCCCGTCTCCACGGTCGACGCGGATCAATTCCCCGGAGTCACCTAGTGCAG” was tested. Which binding signal did it give?
A: The binding signal was 3220 fluorescence intensity (a.u.).

Q: How did the binding signal turn out when “AATTCCGGCCCAATAGTCACTTGTGTTGGCCACTTCGCCTCGGAGTCACCTAGTGCAG” was run?
A: Its binding signal is 3350 fluorescence intensity (a.u.).

Q: “TCGGGAAAATGGTGCCATGTGTCACTTCGTTATAGCTGATCGGAGTCACCTAGTGCAG” was tested. Which binding signal did it give?
A: Its binding signal is 3290 fluorescence intensity (a.u.).

Q: For “AGGAGGAGGAGGAGAACCACAAGACCAAAACCAACCATGGCGGAGTCACCTAGTGCAG”, which binding signal is on record?
A: Its binding signal is 3620 fluorescence intensity (a.u.).

Q: Which binding signal does the source give for “TTACTTTTGTACGCTGTGTTATCACTGCACGTAATAATTACGGAGTCACCTAGTGCAG” here?
A: Its binding signal is 3210 fluorescence intensity (a.u.).

Q: How did the binding signal turn out when “CGTTTTCATCTTGCAGGTGGACTTGGATCTTGGGAATTACCGGAGTCACCTAGTGCAG” was run?
A: Its binding signal is 3530 fluorescence intensity (a.u.).

Q: For “CCTGCTGCTGCTGAGTAGGATAGGTCTCTTTCTGTCTGTCCGGAGTCACCTAGTGCAG”, which binding signal is on record?
A: The binding signal was 4300 fluorescence intensity (a.u.).

Q: For “CAGCGCTCATCTACCCGAGCTCCACGTCACGCATCTCCCTCGGAGTCACCTAGTGCAG”, which binding signal is on record?
A: Its binding signal is 22500 fluorescence intensity (a.u.).

Q: For “TAGGATATTGATGCTAAAACGTGTCCCCACCAATTTACTGCGGAGTCACCTAGTGCAG”, which binding signal is on record?
A: The binding signal was 3290 fluorescence intensity (a.u.).

Q: Which binding signal does the source give for “AGCTGGCTCCGGCACGTCGCGCCGGACACGAGGGACCTCTCGGAGTCACCTAGTGCAG” here?
A: The binding signal was 3460 fluorescence intensity (a.u.).

Q: “TGTTGGACACAACGAAATACGACGCTTCCGTGGCCATCAGCGGAGTCACCTAGTGCAG” was tested. Which binding signal did it give?
A: The binding signal was 3660 fluorescence intensity (a.u.).

Q: For “GAAAAGATGACCCCATATTCTCGTGTATTCTTTGACACTTCGGAGTCACCTAGTGCAG”, which binding signal is on record?
A: Its binding signal is 3390 fluorescence intensity (a.u.).

Q: With “GTTGTCGTCGTCACTGCCGCCGCCACCATCGCTGCGCCGCCGGAGTCACCTAGTGCAG” as the sequence, how does the binding signal read?
A: The binding signal was 4570 fluorescence intensity (a.u.).

Q: For “CGCCGCGCCGACCTCCCCGCCGGCGGCCGCGCGGTGAATCCGGAGTCACCTAGTGCAG”, which binding signal is on record?
A: The binding signal was 3460 fluorescence intensity (a.u.).

Q: “ACTATCACAGGAGGAAGAATGTGATAAACTTACACATCAGCGGAGTCACCTAGTGCAG” was tested. Which binding signal did it give?
A: Its binding signal is 5630 fluorescence intensity (a.u.).

Q: Which binding signal does the source give for “CAAGCTCTTTTCTCTGACTCCAACACAGTCACCTTCTCATCGGAGTCACCTAGTGCAG” here?
A: Its binding signal is 3960 fluorescence intensity (a.u.).

Q: Which binding signal does the source give for “AACACTAGTCTTTCACACGTATTGTTGTACTACATCCGTCCGGAGTCACCTAGTGCAG” here?
A: The binding signal was 5610 fluorescence intensity (a.u.).

Q: With “ATTCTTTCTGTCGGATGACAGTTGGCAAATTCATTGATTTCGGAGTCACCTAGTGCAG” as the sequence, how does the binding signal read?
A: The binding signal was 3670 fluorescence intensity (a.u.).

Q: “ATTATACTAAGTGTTGGTCAAATGTTTTAAAGGTTAAATCCGGAGTCACCTAGTGCAG” was tested. Which binding signal did it give?
A: The binding signal was 3470 fluorescence intensity (a.u.).

Q: With “AACCGCCACGTCAGATTCGCCGCCCGCCTCTCTCGTCGCCCGGAGTCACCTAGTGCAG” as the sequence, how does the binding signal read?
A: Its binding signal is 36000 fluorescence intensity (a.u.).

Q: “TTGCTAAATGATATCAATTAAACGGTGTATCAATTCCATACGGAGTCACCTAGTGCAG” was tested. Which binding signal did it give?
A: The binding signal was 3190 fluorescence intensity (a.u.).

Q: With “CGACGCCGCCGAGATCGCCGTCACCCGAATCCTGCGACGCCGGAGTCACCTAGTGCAG” as the sequence, how does the binding signal read?
A: The binding signal was 3580 fluorescence intensity (a.u.).

Q: For “ACACAAAATTGATGATGCACCTACCGGTCCGGTAACAATACGGAGTCACCTAGTGCAG”, which binding signal is on record?
A: Its binding signal is 3340 fluorescence intensity (a.u.).

Q: With “TTGCGCTGGCGCCAACGCCTCTGCCAACAACTCACACATACGGAGTCACCTAGTGCAG” as the sequence, how does the binding signal read?
A: The binding signal was 3140 fluorescence intensity (a.u.).

Q: How did the binding signal turn out when “CCGCCTCGGCTCGATCCGCCCATATATTTCCCACGCATTCCGGAGTCACCTAGTGCAG” was run?
A: The binding signal was 3160 fluorescence intensity (a.u.).

Q: With “AAAGCCAAACAAGTGTCCAAACGGCTAGGAGTCAACCTCGCGGAGTCACCTAGTGCAG” as the sequence, how does the binding signal read?
A: Its binding signal is 41200 fluorescence intensity (a.u.).

Q: Which binding signal does the source give for “GACACTTACAAGCACTGCGGCGTTACCATTTTATGGAACTCGGAGTCACCTAGTGCAG” here?
A: Its binding signal is 3220 fluorescence intensity (a.u.).

Q: With “ATAATCGTGATGTGGTTGTGATATTATCTTTTGTTAATGTCGGAGTCACCTAGTGCAG” as the sequence, how does the binding signal read?
A: The binding signal was 3890 fluorescence intensity (a.u.).

Q: With “GTCAAAAGCAAGCAGCCACCTTATCTTCTCCTCCCGGCAGCGGAGTCACCTAGTGCAG” as the sequence, how does the binding signal read?
A: The binding signal was 18500 fluorescence intensity (a.u.).

Q: For “ATGTGTTGGTACTGGTTTTAGGTTTGAGTGACGCGATCCACGGAGTCACCTAGTGCAG”, which binding signal is on record?
A: Its binding signal is 6460 fluorescence intensity (a.u.).

Q: How did the binding signal turn out when “CTTGGCCCATCAAAACGGGTGCCACGTGTCGCGCATCCAACGGAGTCACCTAGTGCAG” was run?
A: Its binding signal is 30100 fluorescence intensity (a.u.).

Q: How did the binding signal turn out when “ATAGGAGTTACCCTGCTACAATGCTACAATGCTACAGGCCCGGAGTCACCTAGTGCAG” was run?
A: Its binding signal is 27800 fluorescence intensity (a.u.).

Q: “TAGTGCGTCCACATCCAGCGATGGTGGTCAAGGTGACGGCCGGAGTCACCTAGTGCAG” was tested. Which binding signal did it give?
A: Its binding signal is 3250 fluorescence intensity (a.u.).

Q: Which binding signal does the source give for “ACTGCAACTTTCGTGGCTCCACTGGCCCCGGATCCCATCACGGAGTCACCTAGTGCAG” here?
A: Its binding signal is 4710 fluorescence intensity (a.u.).

Q: How did the binding signal turn out when “TATATCACTATATCAGAATCTGGTGAAGCCTCTGAATCATCGGAGTCACCTAGTGCAG” was run?
A: Its binding signal is 3600 fluorescence intensity (a.u.).
